## Melanoma cell counts after drug treatment

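Human melanoma cells were exposed to two drugs together for 72 h in 1,536-well plates and read by automated microscopy after fixing and staining. Each value is the count of nuclei relative to DMSO-treated wells, in %, so that 100 equals the control. Every drug was used at one fixed concentration, the higher of two screened. No replicate spread is given; individual values may be noisy.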
This is part of the screen, not chosen by result.

Drugs:
lapatinib: CS(=O)(=O)CCNCc1ccc(-c2ccc3ncnc(Nc4ccc(OCc5cccc(F)c5)c(Cl)c4)c3c2)o1 at 4 µM
sorafenib: CNC(=O)c1cc(Oc2ccc(NC(=O)Nc3ccc(Cl)c(C(F)(F)F)c3)cc2)ccn1 at 2 µM
fludarabine: Nc1nc(F)nc2c1ncn2[C@@H]1O[C@H](CO)[C@@H](O)[C@@H]1O at 1 µM
YM155: COCC[n+]1c2c(n(Cc3cnccn3)c1C)C(=O)c1ccccc1C2=O at 0.002 µM
GW0742: Cc1cc(SCc2sc(-c3ccc(C(F)(F)F)c(F)c3)nc2C)ccc1OCC(=O)O at 10 µM
AS-252424: O=C1NC(=O)/C(=C/c2ccc(-c3ccc(F)cc3O)o2)S1 at 5 µM
FK866: O=C(/C=C/c1cccnc1)NCCCCC1CCN(C(=O)c2ccccc2)CC1 at 0.05 µM
bortezomib: CC(C)C[C@H](NC(=O)[C@H](Cc1ccccc1)NC(=O)c1cnccn1)B(O)O at 0.005 µM

| Combination | WM3619 | COLO 800 | WM451Lu | C32 | COLO 792 | COLO 829 |
|---|---|---|---|---|---|---|
| GW0742 + fludarabine | 110 | 90.1 | 87.7 | 100 | 58.4 | 93.7 |
| sorafenib + bortezomib | 5.0 | 79.7 | 18.4 | 27.8 | 43.6 | 14.7 |
| fludarabine + AS-252424 | 83.1 | 65.1 | 118 | 78.0 | 68.2 | 106 |
| AS-252424 + YM155 | 96.5 | 57.3 | 77.4 | 106 | 82.1 | 113 |
| fludarabine + bortezomib | 4.9 | 66.4 | 26.1 | 29.6 | 30.7 | 13.5 |
| lapatinib + GW0742 | 115 | 54.1 | 94.1 | 93.2 | 80.8 | 88.9 |
| AS-252424 + bortezomib | 6.6 | 36.4 | 28.9 | 29.4 | 38.9 | 15.9 |
| sorafenib + AS-252424 | 86.1 | 121 | 105 | 110 | 113 | 109 |
| AS-252424 + GW0742 | 73.2 | 85.5 | 86.8 | 88.9 | 76.7 | 78.0 |
| AS-252424 + lapatinib | 75.9 | 61.3 | 101 | 103 | 78.4 | 130 |
| lapatinib + sorafenib | 32.8 | 47.7 | 88.0 | 102 | 95.1 | 97.7 |
| sorafenib + fludarabine | 118 | 111 | 126 | 99.3 | 66.7 | 95.7 |
| fludarabine + FK866 | 77.0 | 33.9 | 92.3 | 84.2 | 32.6 | 57.0 |
| sorafenib + FK866 | 100 | 31.4 | 120 | 100 | 62.1 | 69.6 |
| fludarabine + YM155 | 78.3 | 28.4 | 34.1 | 96.1 | 42.8 | 73.6 |
| FK866 + GW0742 | 110 | 35.3 | 99.1 | 105 | 42.5 | 85.1 |
| sorafenib + YM155 | 91.8 | 37.4 | 35.3 | 118 | 61.1 | 80.8 |
| YM155 + FK866 | 67.4 | 24.9 | 28.2 | 110 | 27.0 | 50.5 |
| bortezomib + GW0742 | 1.8 | 68.9 | 24.0 | 24.2 | 32.7 | 8.3 |
| FK866 + bortezomib | 2.7 | 17.3 | 20.3 | 34.5 | 14.9 | 8.2 |
| GW0742 + YM155 | 87.4 | 57.8 | 50.1 | 125 | 68.8 | 77.1 |
| sorafenib + GW0742 | 97.8 | 111 | 117 | 104 | 111 | 81.0 |
| lapatinib + bortezomib | 3.9 | 38.8 | 15.4 | 36.7 | 20.4 | 9.0 |
| YM155 + lapatinib | 34.1 | 29.3 | 14.7 | 83.5 | 25.9 | 28.6 |
| FK866 + lapatinib | 70.8 | 60.8 | 87.6 | 108 | 33.5 | 37.9 |
| FK866 + AS-252424 | 90.2 | 16.5 | 108 | 121 | 39.0 | 55.2 |

3 of the entries, repeated:

Combination	WM3619	COLO 800	WM451Lu	C32	COLO 792	COLO 829
FK866 + GW0742	110	35.3	99.1	105	42.5	85.1
FK866 + lapatinib	70.8	60.8	87.6	108	33.5	37.9
sorafenib + fludarabine	118	111	126	99.3	66.7	95.7

Data from the primary screen of doi:10.1371/journal.pone.0140310, rounded.